Results taken from patent US20260174788A1 (priority 2023, published 2026).
Some results were stated once for a whole list of compounds, not compound by compound.

Assay: Pharmacokinetics of gemcitabine and dFdU in urine and plasma after TAR-200
Conditions: LOQ 0.1 μg/mL

Row | SMILES | Plasma concentration, all available samples [ng/mL] | Plasma concentration, all except 2 samples [ng/mL]
1 | Nc1ccn([C@@H]2O[C@H](CO)[C@@H](O)C2(F)F)c(=O)n1 [gemcitabine] | < 100 | 
2 | O=c1ccn([C@@H]2O[C@H](CO)[C@@H](O)C2(F)F)c(=O)[nH]1 [dFdU, 2′,2′ difluorodeoxyuridine] |  | < 100
